In article PMC6260918:
Results are given in words; binding and its absence hold for the method and conditions named. In cells and extracts the contact can be indirect. Some binding calls cover weakened binding; strength is not graded here.

Protein sequences, listed by entry. Tags and fused reporters are not part of them.
UniProt P31749: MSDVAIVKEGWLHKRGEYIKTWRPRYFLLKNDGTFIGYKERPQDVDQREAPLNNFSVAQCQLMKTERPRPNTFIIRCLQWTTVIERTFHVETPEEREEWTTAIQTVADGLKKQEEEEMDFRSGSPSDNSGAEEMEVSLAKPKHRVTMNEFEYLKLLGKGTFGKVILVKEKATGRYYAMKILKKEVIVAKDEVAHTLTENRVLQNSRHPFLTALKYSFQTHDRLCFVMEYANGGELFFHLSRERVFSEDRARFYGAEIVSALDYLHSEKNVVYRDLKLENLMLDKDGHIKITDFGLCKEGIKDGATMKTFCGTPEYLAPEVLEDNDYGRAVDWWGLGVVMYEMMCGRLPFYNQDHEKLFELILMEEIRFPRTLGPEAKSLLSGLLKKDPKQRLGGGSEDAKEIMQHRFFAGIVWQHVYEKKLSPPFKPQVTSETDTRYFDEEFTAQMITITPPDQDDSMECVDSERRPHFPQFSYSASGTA

Target: T1, Thioredoxin-interacting protein (TXNIP), overexpressed from a plasmid (UniProt Q9H3M7)
T1 sequence: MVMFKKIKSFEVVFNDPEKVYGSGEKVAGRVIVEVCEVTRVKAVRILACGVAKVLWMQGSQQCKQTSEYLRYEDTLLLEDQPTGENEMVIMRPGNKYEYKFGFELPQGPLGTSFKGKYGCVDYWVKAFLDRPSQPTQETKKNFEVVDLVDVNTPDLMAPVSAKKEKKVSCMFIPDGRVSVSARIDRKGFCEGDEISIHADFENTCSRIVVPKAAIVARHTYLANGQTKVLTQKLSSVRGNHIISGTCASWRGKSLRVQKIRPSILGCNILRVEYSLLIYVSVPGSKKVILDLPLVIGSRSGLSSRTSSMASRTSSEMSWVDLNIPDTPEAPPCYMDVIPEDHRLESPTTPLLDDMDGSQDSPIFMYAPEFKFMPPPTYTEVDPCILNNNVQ
Test: pull-down; GST pull-down from 293T cells cotransfected with TXNIP and AKT plasmids; also after 25 mM glucose for 1 hr or 0.5 mM H2O2 for 1 hr (interaction induced)

AKT (protein kinase B), overexpressed from a plasmid (from UniProt P31749 1-480) (enzyme)
binding: binds
